The source of these data is PubChem BioAssay AID2685 (National Center for Advancing Translational Sciences (NCATS), 2010).

SMILES strings stand for the structures. This is one part of the list. Shown are side measurements of this screen, not its main read-out; they come without a call. Compounds called inactive in the main read-out are mostly missing here. The note in brackets gives the kind of curve behind each potency; many fits are weak.

The nature of this assay: qHTS Assay for Lipid Storage Modulators in Drosophila S3 Cells.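 As to cell number change: cells counted by Cell Tracker Red CMTPX staining in the red channel.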 The following applies: BODIPY lipid droplet fluorescence, 18-24 h; for cell number change: measured here: cell count max response, cells fed with added oleic acid. In short, it runs like this:
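Drosophila S3 cells got compounds at several concentrations plus oleic acid (400 uM solution). Laser-scanning cytometry with 488 nm excitation read lipid droplets at 500-530 nm and cells at 575-640 nm. Percent activity was relative to 20 uM Triacsin C.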

Where [1] appears, read: measured here: lipid fluorescence (Fed channel) AC50, cells fed with added oleic acid.
Where [2] appears, read: measured here: cell number channel AC50, cells fed with added oleic acid.

As for `O=C(NCCNS(=O)(=O)c1ccccc1Cl)c1cc(OCC(F)(F)F)ccc1OCC(F)(F)F`, the cell number change was -29.5%. Besides, the AC50 (commonly the concentration at which the activity in the assay is half-maximal) under setting [1] is 29.1 µM [falling, single point].

With `CCN(CC(=O)NCc1cccs1)C(=O)c1cccc(S(=O)(=O)Nc2cccc(C)c2)c1`, the cell number change was 3.07%. Further, under setting [1], the AC50 is 25.9 µM [falling, partial curve, poor fit].

As for `CN(C)C(=O)c1ccc(NC(=O)c2cccc(S(=O)(=O)N3CCCCCC3)c2)cc1`, the cell number change came out at 11.9%. For the same molecule, under setting [1], the AC50 is 32.6 µM [rising, single point].

Consider `CNC(=O)CC1C(=O)N(C)C(=S)N1NC(=O)c1ccc(Cl)cc1` (configuration not stated), for which the cell number change stood at 23%. In addition, the AC50 under setting [2] is 0.13 µM [falling, full curve]. Further, the AC50 under setting [1] is 1.46 µM [falling, full curve].

`O=C(CSc1nnnn1-c1ccccc1)Nc1ncc2c(n1)CC(c1ccccc1)CC2=O` (configuration not stated): the AC50 by setting is: under setting [2], 1.3 µM [rising, partial curve]; under setting [1], 2.06 µM [rising, partial curve].

`CCc1ccc(C(=O)c2cn(CC(=O)Nc3cccc(OC)c3)c3ccc(OC)cc3c2=O)cc1`: the cell number change amounted to 36.9%. Moreover, the AC50 under setting [2] is 11.6 µM [rising, single point]. Besides, under setting [1], the AC50 was 25.9 µM [rising, partial curve, poor fit].

With `Cc1ccc(S(=O)(=O)C(C#N)c2nc3ccccc3nc2N2CCC(C)CC2)cc1` (configuration not stated), the cell number change was -6.38%. The AC50 under setting [1] is 6.51 µM [rising, single point].

Regarding `COc1cc(/C=N/NC(=O)COc2c(C)cc([N+](=O)[O-])cc2C)ccc1OC(=O)c1ccccc1Br`, the cell number change is -4.82%. The AC50 under setting [2] is 6.51 µM [rising, single point]. Moreover, the AC50 under setting [1] is 11.6 µM [rising, partial curve, poor fit].

Take `COc1ccc(NC(=O)CSc2nc3[nH]c(=O)cc(O)c3s2)c(OC)c1`: the cell number change was -14.2%. Under setting [2], the AC50 is 0.164 µM [falling, full curve, poor fit].

Take `CCC1Oc2ccccc2N(CC(=O)NC2CCCC2)C1=O` (configuration not stated): the cell number change amounted to 6.85%. Besides, the AC50 under setting [1] is 16.4 µM [rising, partial curve].

With `O=C(CCCNS(=O)(=O)c1ccccc1)NCc1ccco1`, the cell number change is -179%. Also, the AC50 under setting [2] is 25.9 µM [falling, partial curve]. The AC50 under setting [1] is 23.1 µM [falling, partial curve].

Turning to `COCCn1c(SCC(=O)OCc2ccccc2)nc2c1c(=O)[nH]c(=O)n2C`, the cell number change is -113%. For the same molecule, under setting [2], the AC50 is 29.1 µM [falling, single point]. Also, the half-maximal activity concentration (AC50) under setting [1] was 29.1 µM [falling, single point].

Regarding `Nc1cc(N)nc(SCC(=O)c2ccc3c(c2)NC(=O)CO3)n1`, the cell number change is 24.3%.

On to `Cc1cc(C)cc(C(=O)N2CCN=C2c2ccccc2)c1`, for which the cell number change came to 17.2%. Further, the AC50 under setting [1] is 0.00461 µM [rising, full curve, poor fit].

Regarding `CCOC(=O)c1c(COc2ccccc2)oc2ccc(O)cc12`, the cell number change was -26.4%. The AC50 under setting [1] was 0.116 µM [rising, full curve, poor fit].

With `CN(C)CCCN(C(=O)COc1ccccc1)c1nc2ccc(Cl)cc2s1`, the cell number change was -7.86%. Under setting [2], the half-maximal activity concentration (AC50) is 4.11 µM [falling, partial curve, poor fit].

Consider `CC1=NOC(=O)/C1=C\c1ccc2c(c1)OCO2`, for which the cell number change was -18.3%. For the same molecule, the AC50 under setting [1] was 6.51 µM [rising, single point].

On to `O=C(CCC(=O)N1CCN(c2ccccn2)CC1)Nc1nnc(C(F)(F)F)s1`, for which the cell number change was determined as 8.9%. Moreover, under setting [2], the AC50 is 0.651 µM [falling, single point].

For `CC1(C)Cc2c(sc3nnn(Cc4ccccc4)c(=O)c23)CO1`, the cell number change amounted to 3.62%. Also, the AC50 under setting [2] is 0.651 µM [falling, full curve].

On to `COc1ccccc1NC(=O)Cc1nnc(SCC(=O)NC2CCCCC2C)n1C` (configuration not stated), for which the cell number change was -31.6%. Moreover, the half-maximal activity concentration (AC50) under setting [2] was 0.00411 µM [falling, full curve, poor fit].

For `CCN(CCn1cccn1)C(=O)CC1C(=O)NCCN1Cc1ccc(OC)c(OC)c1` (configuration not stated), the cell number change was 1.1%. The AC50 under setting [1] was 6.51 µM [falling, single point].

Turning to `O=C(O)c1cc(-c2ccccn2)n[nH]1`, the cell number change is -17.3%. For the same molecule, under setting [2], the AC50 is 0.13 µM [falling, full curve, poor fit]. In addition, the concentration at half-maximal activity (AC50) under setting [1] is 1.16 µM [falling, single point].

As for `CC1=N/C(=C\c2ccc([N+](=O)[O-])cc2)C(=O)N1c1ccc(Cl)cc1`, the cell number change came to 22.4%. Under setting [2], the AC50 is 0.0366 µM [rising, full curve, poor fit]. Further, the AC50 under setting [1] was 1.3 µM [falling, full curve].

With `CN(c1ccccc1)S(=O)(=O)c1cccc(C(=O)NC2CC(C)(C)NC(C)(C)C2)c1`, the cell number change worked out at 10%. Further, under setting [1], the AC50 is 1.84 µM [rising, single point].

As for `CCCC(=O)Nc1ccc(-c2nc3ncccc3o2)cc1`, the cell number change was determined as 13.5%. Besides, the AC50 under setting [1] is 2.31 µM [falling, single point].

Regarding `O=C(NCc1cccc(C(F)(F)F)c1)c1ccc2c(c1)OCO2`, the cell number change was -15.5%. Further, the AC50 under setting [1] is 18.4 µM [falling, single point].

For `C=CC[N+](C)(C)c1ccc(CCC(=O)CCc2ccc([N+](C)(C)CC=C)cc2)cc1`, the cell number change stood at 17.3%.

Turning to `CC(C)C(=O)NC(c1ccc([N+](=O)[O-])cc1)c1c(O)ccc2ccccc12` (configuration not stated), the cell number change was -29.4%. Besides, under setting [1], the AC50 is 14.6 µM [falling, partial curve, poor fit].

Turning to `O=P(COCCO)(c1ccccc1)c1ccccc1`, the cell number change is -35.9%. Further, the AC50 under setting [2] is 0.0259 µM [falling, full curve, poor fit]. In addition, the AC50 under setting [1] was 0.259 µM [falling, full curve].

Regarding `COc1cccc(COC(=O)Cc2ccc(S(=O)(=O)N3CCOCC3)s2)c1OC`, the cell number change is -49.9%. For the same molecule, the concentration at half-maximal activity (AC50) under setting [2] is 3.66 µM [falling, full curve].

Take `Nc1c(C(=O)NCc2ccccc2)nnn1Cc1cccc(Cl)c1`: the AC50 under setting [1] is 0.184 µM [rising, full curve, poor fit].

Regarding `COc1ccccc1NC(=O)C(C)OC(=O)/C=C/c1ccc2ccccc2n1` (configuration not stated), the cell number change was -23.2%. Moreover, the AC50 under setting [1] was 0.092 µM [falling, full curve, poor fit].

On to `Cc1ccc(NC(=O)CN2C(=O)CC(C)S(=O)(=O)c3ccccc32)cc1` (configuration not stated), for which the cell number change turned out to be 0.382%. Also, the AC50 under setting [1] was 29.1 µM [rising, single point].

`CCc1ccc(NC(=O)CS(=O)CC(=O)Nc2ccc(-n3cnnn3)c(C)c2)cc1` (configuration not stated): the cell number change came to 6.25%. In addition, the AC50 under setting [1] is 5.8 µM [rising, partial curve].

Turning to `CC1CCC(NC(=O)Cn2c(=O)[nH]c3ccsc3c2=O)CC1` (configuration not stated), the cell number change turned out to be 1.13%. The concentration at half-maximal activity (AC50) under setting [1] is 0.58 µM [rising, single point].

Turning to `CC(C)(C)n1nc2c(c1NC(=O)COc1ccc3ccccc3c1)CS(=O)C2` (configuration not stated), the cell number change came to 68%. Besides, the AC50 under setting [2] is 3.66 µM [rising, partial curve, poor fit]. For the same molecule, the concentration at half-maximal activity (AC50) under setting [1] is 29.1 µM [rising, single point].

`Cc1ccc(NC(=O)Cn2ccsc2=N)c([N+](=O)[O-])c1`: the cell number change is 7%.

For `CCO[C@@H]1OC(C(=O)N2CCCCCCC2)=C[C@H](c2csc3ccccc23)[C@H]1CCCO`, the cell number change is -16.2%.

With `CC(=O)Nc1ccc(S(=O)(=O)N(CC(=O)O)Cc2ccccc2)cc1`, the cell number change was -32.9%. The AC50 under setting [2] is 0.231 µM [falling, full curve]. In addition, under setting [1], the AC50 is 1.16 µM [falling, full curve].

Take `COc1ccccc1N1CCN(C(=O)c2ccc3[nH]c4c(c3c2)CCCC4)CC1`: the cell number change was -0.825%. Further, under setting [1], the half-maximal activity concentration (AC50) is 29.1 µM [falling, single point].

`O=C(NCCNC(=O)c1cc(OCC(F)(F)F)ccc1OCC(F)(F)F)Nc1ccc(OC(F)(F)F)cc1`: the cell number change is -2.23%. The AC50 under setting [2] is 6.51 µM [rising, single point]. Besides, the AC50 under setting [1] is 6.51 µM [rising, partial curve].

As to `COc1ccc(NC(=O)C23CCC(C)(C(=O)C2)C3(C)C)cc1` (configuration not stated), the cell number change stood at 4.76%. For the same molecule, the AC50 under setting [2] is 0.731 µM [falling, full curve, poor fit]. Moreover, under setting [1], the AC50 is 1.03 µM [falling, full curve].

`Cc1ccc(N2CCN(c3ccc(NCc4nc5ccccc5n4C)cc3)CC2)cc1`: the cell number change came to 36.6%. Also, the concentration at half-maximal activity (AC50) under setting [2] was 3.26 µM [rising, partial curve]. In addition, the AC50 under setting [1] is 0.731 µM [rising, partial curve, poor fit].

On to `Cc1cc(C(=O)N2CCN(c3ncccn3)CC2)c(C)o1`, for which the cell number change is -1%. Moreover, under setting [1], the AC50 is 0.651 µM [falling, partial curve, poor fit].

For the molecule `Cc1cccc(C(=O)N(Cc2ccco2)c2c(N)n(Cc3ccccc3)c(=O)[nH]c2=O)c1`, the cell number change was -13%. For the same molecule, the AC50 under setting [2] is 4.11 µM [falling, single point]. Further, under setting [1], the AC50 is 4.11 µM [falling, single point].

Take `Cc1nn2c(-c3ccncc3)ccnc2c1Br`: the cell number change came out at 65.1%. Besides, the AC50 under setting [2] was 29.1 µM [rising, single point].

As to `Cc1ccnc2c(N3C(=O)C4C5c6ccccc6C(c6ccccc65)C4C3=O)cccc12` (configuration not stated), the cell number change is -29.1%. Under setting [1], the AC50 is 0.651 µM [falling, full curve, poor fit].

As for `Cc1c(C(=O)OCCN2CCCCC2)oc2ccccc12`, the cell number change amounted to 9.12%.

Take `COc1ccc(OCc2ccc(-c3nc4ccccc4c(=O)n3N)o2)cc1`: the cell number change was determined as 7.64%.

Turning to `O=C(N/N=C/c1cccc(NC(=O)c2ccc(Cl)cc2)c1)c1ccc(O)cc1`, the cell number change was found to be 16.1%. Further, the AC50 under setting [1] is 6.51 µM [rising, single point].

For the molecule `Cc1cc2oc(=O)sc2cc1NS(=O)(=O)c1ccccc1`, the AC50 under setting [1] was 0.116 µM [falling, full curve, poor fit].

For the molecule `CCCCn1c2ccccc2c2nnc(SCCN3CCCCC3)nc21`, the cell number change came out at 19.4%.

Regarding `COc1ccc(-c2nc3cc(C)ccn3c2NCc2ccc3c(c2)OCO3)cc1`, the cell number change is -15.6%. The AC50 under setting [1] was 7.31 µM [falling, partial curve].

For the molecule `Nc1nc(N)nc(-c2cc(O)ccc2O)n1`, the cell number change was -40%. The AC50 under setting [2] is 25.9 µM [falling, single point].

Regarding `O=C(O)C1C2C=CC(O2)C1C(=O)Nc1ccc(S(=O)(=O)Nc2ccccc2)cc1` (configuration not stated), the AC50 under setting [1] was 0.116 µM [falling, full curve, poor fit].

Take `COc1cc(-c2cc(N)n(S(=O)(=O)c3ccc(F)cc3)n2)cc(OC)c1OC`: the cell number change is -32.6%. Further, the AC50 under setting [2] was 29.1 µM [falling, single point]. Further, the AC50 under setting [1] is 32.6 µM [falling, single point].
